The supplement of paper PMC6411743
± gives the standard deviation of the averaged measurements. The list shows a part of the results.

Protein sequences, listed by entry. Tags and fused reporters are not part of them. Lines headed by an entry give the natural chain unless they say otherwise; changes in a name come on top.
UniProt O95671: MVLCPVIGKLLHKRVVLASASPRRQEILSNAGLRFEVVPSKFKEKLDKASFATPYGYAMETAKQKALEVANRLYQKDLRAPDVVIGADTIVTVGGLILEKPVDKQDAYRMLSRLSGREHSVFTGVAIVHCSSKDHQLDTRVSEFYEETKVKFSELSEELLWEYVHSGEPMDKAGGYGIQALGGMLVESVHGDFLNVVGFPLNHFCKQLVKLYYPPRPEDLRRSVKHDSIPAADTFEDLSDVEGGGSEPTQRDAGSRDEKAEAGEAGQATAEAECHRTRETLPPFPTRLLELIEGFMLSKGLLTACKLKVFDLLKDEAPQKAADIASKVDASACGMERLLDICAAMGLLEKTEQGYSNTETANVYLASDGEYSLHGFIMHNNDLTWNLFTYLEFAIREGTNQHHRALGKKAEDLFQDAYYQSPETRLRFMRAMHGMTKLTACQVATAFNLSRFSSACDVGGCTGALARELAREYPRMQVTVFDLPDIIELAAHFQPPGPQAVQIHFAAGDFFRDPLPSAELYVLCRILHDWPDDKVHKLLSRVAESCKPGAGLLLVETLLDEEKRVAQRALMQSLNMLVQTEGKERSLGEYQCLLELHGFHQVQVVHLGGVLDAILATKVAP
UniProt O95197: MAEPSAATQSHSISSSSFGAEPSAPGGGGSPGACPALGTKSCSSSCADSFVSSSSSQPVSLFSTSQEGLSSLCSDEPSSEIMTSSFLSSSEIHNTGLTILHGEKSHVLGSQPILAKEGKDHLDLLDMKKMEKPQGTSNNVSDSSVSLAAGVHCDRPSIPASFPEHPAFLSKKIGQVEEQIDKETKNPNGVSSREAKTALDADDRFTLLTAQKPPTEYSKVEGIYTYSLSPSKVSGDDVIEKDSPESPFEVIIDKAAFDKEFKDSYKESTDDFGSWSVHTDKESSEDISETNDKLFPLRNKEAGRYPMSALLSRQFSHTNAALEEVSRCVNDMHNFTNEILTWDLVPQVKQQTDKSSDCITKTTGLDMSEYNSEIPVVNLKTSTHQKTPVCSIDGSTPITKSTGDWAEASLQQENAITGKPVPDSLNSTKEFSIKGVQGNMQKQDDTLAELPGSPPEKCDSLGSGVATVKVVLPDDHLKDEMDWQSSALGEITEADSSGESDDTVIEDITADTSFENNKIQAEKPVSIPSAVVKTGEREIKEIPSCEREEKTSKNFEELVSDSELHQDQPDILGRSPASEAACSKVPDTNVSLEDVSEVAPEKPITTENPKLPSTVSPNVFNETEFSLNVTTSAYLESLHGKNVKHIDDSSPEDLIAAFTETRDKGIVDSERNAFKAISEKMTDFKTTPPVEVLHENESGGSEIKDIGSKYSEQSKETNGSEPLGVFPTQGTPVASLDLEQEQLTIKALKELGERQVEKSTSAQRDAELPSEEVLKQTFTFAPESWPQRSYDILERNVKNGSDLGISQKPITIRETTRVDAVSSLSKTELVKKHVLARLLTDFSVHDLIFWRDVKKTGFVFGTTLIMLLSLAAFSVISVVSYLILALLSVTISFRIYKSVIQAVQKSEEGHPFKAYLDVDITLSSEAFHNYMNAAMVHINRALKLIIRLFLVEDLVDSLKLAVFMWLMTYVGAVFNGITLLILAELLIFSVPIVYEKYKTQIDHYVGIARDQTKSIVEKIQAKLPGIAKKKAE
UniProt O94906: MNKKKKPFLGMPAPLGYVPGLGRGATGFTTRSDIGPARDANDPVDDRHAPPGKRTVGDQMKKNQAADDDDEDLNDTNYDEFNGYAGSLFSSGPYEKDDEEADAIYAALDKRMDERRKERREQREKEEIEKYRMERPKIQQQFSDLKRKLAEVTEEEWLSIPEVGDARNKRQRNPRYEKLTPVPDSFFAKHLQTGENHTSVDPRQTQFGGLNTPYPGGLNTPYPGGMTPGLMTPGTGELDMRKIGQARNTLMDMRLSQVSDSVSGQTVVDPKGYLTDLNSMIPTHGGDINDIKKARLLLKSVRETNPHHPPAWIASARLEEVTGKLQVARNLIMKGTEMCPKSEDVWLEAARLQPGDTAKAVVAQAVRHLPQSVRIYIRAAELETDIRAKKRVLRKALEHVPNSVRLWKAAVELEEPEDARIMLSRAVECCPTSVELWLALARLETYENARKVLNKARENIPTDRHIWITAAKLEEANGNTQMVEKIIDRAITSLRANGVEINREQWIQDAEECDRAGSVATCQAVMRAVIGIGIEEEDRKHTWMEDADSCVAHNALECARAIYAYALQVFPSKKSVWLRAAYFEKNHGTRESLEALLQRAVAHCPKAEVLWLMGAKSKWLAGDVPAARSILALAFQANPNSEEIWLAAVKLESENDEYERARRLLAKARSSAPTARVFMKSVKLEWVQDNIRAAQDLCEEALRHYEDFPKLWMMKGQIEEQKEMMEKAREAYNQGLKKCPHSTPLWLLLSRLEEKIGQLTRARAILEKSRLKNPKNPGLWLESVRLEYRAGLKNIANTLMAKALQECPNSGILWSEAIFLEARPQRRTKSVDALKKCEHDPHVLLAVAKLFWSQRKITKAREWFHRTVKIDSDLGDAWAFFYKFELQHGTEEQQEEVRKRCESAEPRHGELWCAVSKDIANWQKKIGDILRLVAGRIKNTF
UniProt P04844: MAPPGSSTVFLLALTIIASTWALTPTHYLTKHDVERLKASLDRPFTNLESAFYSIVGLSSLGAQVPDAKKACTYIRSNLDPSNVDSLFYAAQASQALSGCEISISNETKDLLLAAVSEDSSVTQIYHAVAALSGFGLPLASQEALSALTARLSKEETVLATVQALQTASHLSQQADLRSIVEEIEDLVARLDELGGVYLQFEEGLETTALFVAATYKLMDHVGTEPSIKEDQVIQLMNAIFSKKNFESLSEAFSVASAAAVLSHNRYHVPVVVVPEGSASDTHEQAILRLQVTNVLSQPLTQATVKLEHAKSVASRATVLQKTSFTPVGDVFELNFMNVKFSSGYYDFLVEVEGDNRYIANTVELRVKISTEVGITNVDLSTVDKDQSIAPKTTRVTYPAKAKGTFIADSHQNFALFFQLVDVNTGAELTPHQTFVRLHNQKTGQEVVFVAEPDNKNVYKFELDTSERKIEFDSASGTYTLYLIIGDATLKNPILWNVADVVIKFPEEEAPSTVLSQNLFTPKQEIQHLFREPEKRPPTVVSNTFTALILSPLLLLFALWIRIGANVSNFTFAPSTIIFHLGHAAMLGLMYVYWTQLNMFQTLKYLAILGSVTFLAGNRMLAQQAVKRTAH
UniProt O75143: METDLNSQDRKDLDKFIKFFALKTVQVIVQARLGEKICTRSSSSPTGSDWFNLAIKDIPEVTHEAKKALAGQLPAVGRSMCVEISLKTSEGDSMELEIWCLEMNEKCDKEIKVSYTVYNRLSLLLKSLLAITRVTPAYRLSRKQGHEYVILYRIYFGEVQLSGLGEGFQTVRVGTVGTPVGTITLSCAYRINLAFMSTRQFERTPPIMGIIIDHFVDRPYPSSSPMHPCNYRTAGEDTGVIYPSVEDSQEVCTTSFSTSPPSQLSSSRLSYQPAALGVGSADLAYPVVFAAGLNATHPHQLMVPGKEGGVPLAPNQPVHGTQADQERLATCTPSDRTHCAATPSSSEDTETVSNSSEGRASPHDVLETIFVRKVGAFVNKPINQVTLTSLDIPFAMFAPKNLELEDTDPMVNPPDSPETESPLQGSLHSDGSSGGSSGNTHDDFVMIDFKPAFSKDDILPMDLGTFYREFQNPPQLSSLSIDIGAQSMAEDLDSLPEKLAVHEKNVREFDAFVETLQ
UniProt P06756, whole entry: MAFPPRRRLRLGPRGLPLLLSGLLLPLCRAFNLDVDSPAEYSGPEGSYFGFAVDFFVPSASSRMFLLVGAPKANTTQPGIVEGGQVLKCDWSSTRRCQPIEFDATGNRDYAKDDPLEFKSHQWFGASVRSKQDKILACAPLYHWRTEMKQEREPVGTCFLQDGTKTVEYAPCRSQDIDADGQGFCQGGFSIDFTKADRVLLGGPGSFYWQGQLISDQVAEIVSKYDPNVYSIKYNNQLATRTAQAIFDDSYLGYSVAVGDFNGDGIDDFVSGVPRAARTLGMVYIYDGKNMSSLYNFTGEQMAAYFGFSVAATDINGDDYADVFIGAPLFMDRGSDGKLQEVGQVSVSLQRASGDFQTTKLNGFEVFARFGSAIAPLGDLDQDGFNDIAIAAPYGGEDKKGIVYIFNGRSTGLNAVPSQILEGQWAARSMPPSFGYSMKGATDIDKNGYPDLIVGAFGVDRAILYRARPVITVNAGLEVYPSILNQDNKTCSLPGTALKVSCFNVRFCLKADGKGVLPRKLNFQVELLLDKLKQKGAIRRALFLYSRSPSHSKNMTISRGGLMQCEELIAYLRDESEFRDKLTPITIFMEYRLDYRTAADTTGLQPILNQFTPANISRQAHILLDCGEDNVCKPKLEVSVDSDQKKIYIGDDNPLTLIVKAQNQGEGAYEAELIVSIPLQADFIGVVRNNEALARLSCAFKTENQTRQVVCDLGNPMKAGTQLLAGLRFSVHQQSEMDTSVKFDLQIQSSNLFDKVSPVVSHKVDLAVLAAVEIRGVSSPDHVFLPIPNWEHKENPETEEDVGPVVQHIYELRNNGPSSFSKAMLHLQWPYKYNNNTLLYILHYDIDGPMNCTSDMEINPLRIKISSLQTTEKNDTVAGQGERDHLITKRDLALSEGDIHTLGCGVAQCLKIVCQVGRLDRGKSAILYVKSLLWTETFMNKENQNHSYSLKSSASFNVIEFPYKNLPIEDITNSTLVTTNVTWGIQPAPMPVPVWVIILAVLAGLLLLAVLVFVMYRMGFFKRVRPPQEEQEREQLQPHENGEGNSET
UniProt O95625: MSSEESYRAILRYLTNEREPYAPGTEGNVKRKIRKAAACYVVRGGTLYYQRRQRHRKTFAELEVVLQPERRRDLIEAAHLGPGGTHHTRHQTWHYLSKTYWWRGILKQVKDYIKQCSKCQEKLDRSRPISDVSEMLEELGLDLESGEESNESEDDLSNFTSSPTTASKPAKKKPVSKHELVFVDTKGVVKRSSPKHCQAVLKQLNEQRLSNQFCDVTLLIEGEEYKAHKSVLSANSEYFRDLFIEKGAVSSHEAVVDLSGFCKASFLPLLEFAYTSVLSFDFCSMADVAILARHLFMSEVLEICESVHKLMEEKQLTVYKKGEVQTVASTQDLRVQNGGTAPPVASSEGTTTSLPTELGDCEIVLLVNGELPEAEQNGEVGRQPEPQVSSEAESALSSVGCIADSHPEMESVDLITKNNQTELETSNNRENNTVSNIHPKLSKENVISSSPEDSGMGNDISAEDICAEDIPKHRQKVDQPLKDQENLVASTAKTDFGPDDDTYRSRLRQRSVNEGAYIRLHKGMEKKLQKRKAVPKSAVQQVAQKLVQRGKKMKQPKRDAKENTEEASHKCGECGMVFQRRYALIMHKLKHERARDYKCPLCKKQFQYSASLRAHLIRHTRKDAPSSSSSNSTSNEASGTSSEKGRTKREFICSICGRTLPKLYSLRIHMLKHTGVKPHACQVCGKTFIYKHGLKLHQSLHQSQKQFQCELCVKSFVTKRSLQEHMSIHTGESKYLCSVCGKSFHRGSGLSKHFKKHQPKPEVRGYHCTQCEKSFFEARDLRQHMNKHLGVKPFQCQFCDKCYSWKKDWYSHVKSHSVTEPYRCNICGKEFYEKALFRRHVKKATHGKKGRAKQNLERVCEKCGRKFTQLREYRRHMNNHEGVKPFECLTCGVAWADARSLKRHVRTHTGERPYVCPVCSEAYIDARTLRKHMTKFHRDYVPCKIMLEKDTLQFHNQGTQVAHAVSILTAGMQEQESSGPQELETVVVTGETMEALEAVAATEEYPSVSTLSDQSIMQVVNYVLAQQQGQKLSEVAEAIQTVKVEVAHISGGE
UniProt P05165: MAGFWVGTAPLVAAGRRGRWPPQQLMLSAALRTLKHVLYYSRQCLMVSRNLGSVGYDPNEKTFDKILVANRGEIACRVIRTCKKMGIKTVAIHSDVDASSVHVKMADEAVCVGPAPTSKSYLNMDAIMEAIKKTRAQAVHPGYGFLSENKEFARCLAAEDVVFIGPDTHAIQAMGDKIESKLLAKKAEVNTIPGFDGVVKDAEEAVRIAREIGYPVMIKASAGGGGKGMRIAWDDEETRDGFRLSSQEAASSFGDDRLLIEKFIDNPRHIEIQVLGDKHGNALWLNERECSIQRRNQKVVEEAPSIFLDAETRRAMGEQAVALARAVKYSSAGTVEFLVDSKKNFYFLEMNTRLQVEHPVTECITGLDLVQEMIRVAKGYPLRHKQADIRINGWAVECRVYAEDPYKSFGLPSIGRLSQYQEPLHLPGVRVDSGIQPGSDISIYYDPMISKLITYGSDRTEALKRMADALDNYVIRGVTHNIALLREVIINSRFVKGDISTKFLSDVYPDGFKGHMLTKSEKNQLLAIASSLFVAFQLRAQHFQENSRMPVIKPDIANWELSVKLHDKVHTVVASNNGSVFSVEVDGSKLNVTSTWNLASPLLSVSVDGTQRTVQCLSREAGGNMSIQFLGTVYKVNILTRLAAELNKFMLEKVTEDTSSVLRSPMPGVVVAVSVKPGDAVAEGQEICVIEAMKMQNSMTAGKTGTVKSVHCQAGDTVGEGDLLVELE

Compound: Nc1nc2c(ncn2[C@@H]2O[C@H](COP(=O)(O)OP(=O)(O)OP(=O)(O)O)[C@@H](O)[C@H]2O)c(=O)[nH]1 [guanosine triphosphate]
Test: NP40-soluble protein abundance relative to vehicle (solubility fold change) (ratio); higher = more soluble protein in presence of GTP
Method in brief: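 Each value is a fold change relative to the detergent-processed vehicle, calculated per replicate from vsn-normalised intensities. Jurkat crude lysate received eight concentrations (0.1 to 10 mM) for 10 min at room temperature and 3 min at 37 °C, then was solubilised in 0.8% NP40 with benzonase (60 min, 4 °C). The ultracentrifuged supernatant was TMT-labelled and run by LC-MS/MS in three independent experiments.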

Row | Target | NP40-soluble protein abundance (concentration: 0.1mM) | NP40-soluble protein abundance (concentration: 0.5mM) | NP40-soluble protein abundance (concentration: 1mM) | NP40-soluble protein abundance (concentration: 2mM) | NP40-soluble protein abundance (concentration: 4mM) | NP40-soluble protein abundance (concentration: 6mM) | NP40-soluble protein abundance (concentration: 8mM) | NP40-soluble protein abundance (concentration: 10mM)
1 | UniProt O95671 and related entries | 0.998 ± 0.014 | 1.01 ± 0.041 | 0.914 ± 0.02 | 0.916 ± 0.057 | 0.902 ± 0.048 | 0.916 ± 0.042 | 0.878 ± 0.046 | 0.858 ± 0.068
2 | UniProt O95197 and related entries | 1.03 ± 0.035 | 0.911 ± 0.079 | 1.01 ± 0.03 | 0.895 ± 0.052 | 0.941 ± 0.048 | 0.895 ± 0.059 | 0.9 ± 0.068 | 0.813 ± 0.079
3 | UniProt O94906 and related entries | 1.06 ± 0.055 | 1.17 ± 0.086 | 1.26 ± 0.17 | 1.42 ± 0.27 | 1.66 ± 0.44 | 1.91 ± 0.46 | 2.23 ± 0.58 | 2.34 ± 0.6
4 | NBN (UniProt O60934) | 1.04 ± 0.023 | 1.06 ± 0.039 | 1.02 ± 0.045 | 1.04 ± 0.04 | 0.98 ± 0.042 | 1.03 ± 0.037 | 1.02 ± 0.055 | 1.03 ± 0.05
5 | UniProt O95747 | 0.948 ± 0.11 | 0.956 ± 0.1 | 0.909 ± 0.095 | 0.895 ± 0.072 | 0.879 ± 0.082 | 0.877 ± 0.077 | 0.872 ± 0.092 | 0.867 ± 0.1
6 | UniProt O94822 and related entries | 1.16 ± 0.18 | 1.1 ± 0.071 | 1.09 ± 0.16 | 1.17 ± 0.13 | 1.19 ± 0.22 | 1.11 ± 0.15 | 1.19 ± 0.17 | 1.11 ± 0.25
7 | RPN2 (UniProt P04844) | 0.9917 ± 0.0051 | 0.996 ± 0.044 | 0.946 ± 0.019 | 0.962 ± 0.043 | 0.963 ± 0.053 | 0.944 ± 0.034 | 0.917 ± 0.0098 | 0.905 ± 0.024
8 | ULK1 (UniProt O75385) | 0.985 ± 0.12 | 1.1 ± 0.13 | 1.12 ± 0.076 | 1.12 ± 0.1 | 1.04 ± 0.036 | 1.09 ± 0.12 | 1.18 ± 0.18 | 1.1 ± 0.19
9 | RPN1 (UniProt P04843) | 0.931 ± 0.027 | 0.984 ± 0.034 | 0.931 ± 0.032 | 0.924 ± 0.016 | 0.899 ± 0.018 | 0.929 ± 0.023 | 0.897 ± 0.032 | 0.894 ± 0.033
10 | UniProt P06733 and related entries | 0.951 ± 0.031 | 0.961 ± 0.036 | 0.94 ± 0.04 | 0.894 ± 0.057 | 0.887 ± 0.053 | 0.888 ± 0.058 | 0.887 ± 0.047 | 0.875 ± 0.061
11 | UniProt O75306 and related entries | 0.964 ± 0.054 | 1.08 ± 0.031 | 0.98 ± 0.044 | 1.04 ± 0.058 | 1.02 ± 0.16 | 1.05 ± 0.091 | 0.954 ± 0.12 | 0.98 ± 0.074
12 | UniProt O95999 and related entries | 0.876 ± 0.03 | 0.885 ± 0.032 | 0.947 ± 0.056 | 0.92 ± 0.071 | 0.885 ± 0.053 | 0.926 ± 0.093 | 0.888 ± 0.065 | 0.917 ± 0.038
13 | UniProt O94804 | 0.965 ± 0.05 | 0.959 ± 0.051 | 0.952 ± 0.057 | 0.922 ± 0.079 | 0.899 ± 0.088 | 0.918 ± 0.07 | 0.93 ± 0.037 | 0.904 ± 0.057
14 | PALM (UniProt O75781) | 0.97 ± 0.023 | 0.85404 ± 0.00084 | 0.949 ± 0.036 | 0.895 ± 0.02 | 0.823 ± 0.032 | 0.845 ± 0.029 | 0.925 ± 0.069 | 0.992 ± 0.1
15 | UniProt O75143 and related entries | 0.993 ± 0.038 | 0.996 ± 0.042 | 1.01 ± 0.065 | 1.02 ± 0.081 | 0.967 ± 0.024 | 0.959 ± 0.088 | 0.937 ± 0.058 | 0.947 ± 0.041
16 | NUP155 (UniProt O75694) | 1.07 ± 0.04 | 1.03 ± 0.056 | 0.998 ± 0.022 | 0.999 ± 0.059 | 1.03 ± 0.04 | 0.989 ± 0.051 | 0.991 ± 0.057 | 1.01 ± 0.085
17 | ATRN (UniProt O75882) | 1.03 ± 0.19 | 1.1 ± 0.11 | 1 ± 0.14 | 1.11 ± 0.14 | 1.02 ± 0.045 | 1.09 ± 0.17 | 1.11 ± 0.13 | 1.13 ± 0.18
18 | UniProt P06756 and related entries | 0.962 ± 0.028 | 1.01 ± 0.023 | 1.06 ± 0.072 | 1.04 ± 0.094 | 1.02 ± 0.066 | 1.09 ± 0.093 | 1 ± 0.058 | 1.04 ± 0.092
19 | UniProt O75431 and related entries | 1.07 ± 0.13 | 1.04 ± 0.057 | 1.03 ± 0.049 | 1.07 ± 0.07 | 1.09 ± 0.056 | 1.03 ± 0.056 | 0.989 ± 0.041 | 1.04 ± 0.045
20 | WDR1 (UniProt O75083) | 0.976 ± 0.011 | 0.996 ± 0.045 | 0.895 ± 0.01 | 0.892 ± 0.031 | 0.881 ± 0.017 | 0.9 ± 0.02 | 0.869 ± 0.046 | 0.834 ± 0.059
21 | UniProt O95453 and related entries | 1.03 ± 0.026 | 1.042 ± 0.0078 | 0.98 ± 0.02 | 0.956 ± 0.021 | 0.98 ± 0.014 | 0.96 ± 0.037 | 0.952 ± 0.027 | 0.915 ± 0.057
22 | ZBTB11 (UniProt O95625) | 1.13 ± 0.069 | 1.1 ± 0.051 | 1.16 ± 0.074 | 1.17 ± 0.029 | 1.19 ± 0.027 | 1.19 ± 0.024 | 1.22 ± 0.047 | 1.196 ± 0.0072
23 | UniProt P04150 and related entries | 0.899 ± 0.13 | 0.946 ± 0.032 | 1.14 ± 0.072 | 1.07 ± 0.029 | 1.01 ± 0.043 | 0.999 ± 0.055 | 1.02 ± 0.046 | 1.05 ± 0.069
24 | UniProt P05165 and related entries | 1.06 ± 0.024 | 1.16 ± 0.04 | 1.09 ± 0.025 | 1.12 ± 0.033 | 1.15 ± 0.094 | 1.12 ± 0.084 | 1.12 ± 0.13 | 1.09 ± 0.12
25 | HSPA4L (UniProt O95757) | 0.972 ± 0.053 | 0.975 ± 0.05 | 0.974 ± 0.048 | 0.926 ± 0.055 | 0.926 ± 0.053 | 0.921 ± 0.057 | 0.944 ± 0.058 | 0.931 ± 0.059
26 | UROD (UniProt P06132) | 1.04 ± 0.023 | 0.98 ± 0.035 | 0.998 ± 0.042 | 0.946 ± 0.033 | 0.98 ± 0.032 | 0.937 ± 0.029 | 0.934 ± 0.047 | 0.92 ± 0.018
27 | HIP1R (UniProt O75146) | 0.994 ± 0.025 | 1.03 ± 0.023 | 1.02 ± 0.047 | 1.07 ± 0.069 | 1.07 ± 0.056 | 1.13 ± 0.046 | 1.158 ± 0.0077 | 1.16 ± 0.039
28 | SYF2 (UniProt O95926) | 0.959 ± 0.14 | 0.932 ± 0.096 | 1.1 ± 0.14 | 1.1 ± 0.049 | 1.1 ± 0.1 | 1.09 ± 0.047 | 1.08 ± 0.12 | 1.18 ± 0.13

From entry 25 as far as 26, as listed above:
Row | Target | NP40-soluble protein abundance (concentration: 0.1mM) | NP40-soluble protein abundance (concentration: 0.5mM) | NP40-soluble protein abundance (concentration: 1mM) | NP40-soluble protein abundance (concentration: 2mM) | NP40-soluble protein abundance (concentration: 4mM) | NP40-soluble protein abundance (concentration: 6mM) | NP40-soluble protein abundance (concentration: 8mM) | NP40-soluble protein abundance (concentration: 10mM)
25 | HSPA4L (UniProt O95757) | 0.972 ± 0.053 | 0.975 ± 0.05 | 0.974 ± 0.048 | 0.926 ± 0.055 | 0.926 ± 0.053 | 0.921 ± 0.057 | 0.944 ± 0.058 | 0.931 ± 0.059
26 | UROD (UniProt P06132) | 1.04 ± 0.023 | 0.98 ± 0.035 | 0.998 ± 0.042 | 0.946 ± 0.033 | 0.98 ± 0.032 | 0.937 ± 0.029 | 0.934 ± 0.047 | 0.92 ± 0.018
